Measurements published in publication PMC7244013.
These are yes or no findings as the source states them, for the method shown. Binding seen in cells or lysates may run through a third protein. Some binding calls cover weakened binding; strength is not graded here. For some of these results: Sequences can lack the tags named with a protein.

T1: fibroblast growth factor 7 (FGF7) (human) (UniProt P21781)
T1 sequence: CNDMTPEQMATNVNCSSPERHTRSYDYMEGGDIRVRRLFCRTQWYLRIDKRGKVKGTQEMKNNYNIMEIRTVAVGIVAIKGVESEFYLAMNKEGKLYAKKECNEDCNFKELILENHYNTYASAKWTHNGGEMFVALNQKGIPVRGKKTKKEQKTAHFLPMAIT

T2: myc-tagged FGF-8 (human) (UniProt P55075)
T2 sequence: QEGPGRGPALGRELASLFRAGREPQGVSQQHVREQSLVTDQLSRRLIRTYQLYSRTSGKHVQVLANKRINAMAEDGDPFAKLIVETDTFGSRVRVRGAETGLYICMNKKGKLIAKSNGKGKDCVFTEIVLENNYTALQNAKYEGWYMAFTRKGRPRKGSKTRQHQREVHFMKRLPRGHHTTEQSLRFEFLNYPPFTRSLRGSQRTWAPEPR

T3: myc-tagged FGF-10 (human) (UniProt O15520)
T3 sequence: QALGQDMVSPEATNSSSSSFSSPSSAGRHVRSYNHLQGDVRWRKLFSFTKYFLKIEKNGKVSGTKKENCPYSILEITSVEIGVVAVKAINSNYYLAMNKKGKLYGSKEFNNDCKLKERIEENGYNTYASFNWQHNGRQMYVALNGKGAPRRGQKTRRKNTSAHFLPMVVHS

T4: myc-tagged FGF7 (human) (UniProt P21781)
T4 sequence: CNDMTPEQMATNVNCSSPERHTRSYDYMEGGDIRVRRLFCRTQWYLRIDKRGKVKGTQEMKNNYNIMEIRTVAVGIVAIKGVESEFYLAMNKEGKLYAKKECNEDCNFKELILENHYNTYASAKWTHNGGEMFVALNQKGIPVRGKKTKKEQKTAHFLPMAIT

T5: myc-tagged FGF-3 (human) (UniProt P11487)
T5 sequence: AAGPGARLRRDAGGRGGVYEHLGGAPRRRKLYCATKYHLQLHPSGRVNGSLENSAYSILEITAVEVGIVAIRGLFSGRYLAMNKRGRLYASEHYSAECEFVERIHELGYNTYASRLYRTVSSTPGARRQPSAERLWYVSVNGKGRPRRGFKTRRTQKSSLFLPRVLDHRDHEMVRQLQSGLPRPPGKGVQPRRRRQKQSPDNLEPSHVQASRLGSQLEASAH


Key:
[1] = target: T1, fibroblast growth factor 7 (FGF7) (human); test: co-IP; HEK293T co-expressing FGF7, PLAC1 and the FGFR2IIIb (D1-D3)-rabbit IgG fusion; FGF7-specific IP from cell extracts, immobilized IgG as control; Western blot for FGF7, PLAC1 and FGFR2IIIb
myc-tagged FGF-8 (human) = target: T2, myc-tagged FGF-8 (human); test: co-IP; HEK293T co-transfected with PLAC1 and one of six C-terminally myc-tagged FGFs; IP with anti-myc antibody, mouse serum as control; Western blot for PLAC1
[2] = target: T3, myc-tagged FGF-10 (human); test: as above
myc-tagged FGF7 (human) = target: T4, myc-tagged FGF7 (human); test: as above
myc-tagged FGF-3 (human) = target: T5, myc-tagged FGF-3 (human); test: as above
[3] = target: T1, fibroblast growth factor 7 (FGF7) (human); test: co-IP; lysates of PLAC1 and/or FGF7-transfected HEK293T cells; IP with anti-FGF7 or anti-PLAC1 antibodies cross-linked to beads, 2 h at 4°C; corresponding IgG as control; Western blot with anti-FGF7 and anti-PLAC1

binding [1] | binding (myc-tagged FGF-8 (human)) | binding [2] | binding (myc-tagged FGF7 (human)) | binding (myc-tagged FGF-3 (human)) | binding [3] | Molecule
binds | – | – | – | – | – | soluble FGFR2IIIb-IgG fusion construct containing the extracellular D1-D3 region of FGFR2IIIb (aa 22-358) (from UniProt P21802-3 22-358) (Fc fusion)
binds | no binding | no binding | binds | no binding | binds | PLAC1 (placenta enriched 1) (protein, UniProt Q9HBJ0 23-212) QSPMTVLCSIDWFMVTVHPFMLNNDVCVHFHELHLGLGCPPNHVQPHAYQFTYRVTECGIRAKAVSQDMVIYSTEIHYSSKGTPSKFVIPVSCAAPQKSPWLTKPCSMRVASKSRATAQKDEKCYEVFSLSQSSQRPNCDCPPCVFSEEEHTQVPCHQAGAQEAQPLQPSHFLDISEDWSLHTDDMIGSM
